In US12281149B2, “Modulators of G-protein coupled receptors” (priority 2021, dated 2025):
For at least one compound, name, drawing or mass did not settle the structure. *1 amine or outer side, *2 acyl side, *3 side chain or, on linkers, in order; H or OH if unused. Where a SMILES comes first, the peptide text is derived from it. Side-chain parts run from the residue outwards. [ ]: non-standard residue; d: D form. The star is where a group is joined. Isobutyryl(2-(3-CN-5-F-Ph)) = CC(C)(C(=O)*)c1cc(F)cc(C#N)c1; C20 diacid = O=C(O)CCCCCCCCCCCCCCCCCCC(=O)*; αMePhe(2-F) = C[C@](N)(Cc1ccccc1F)C(=O)O; γGlu = O=C(O)[C@H](CCC(=O)[*:2])N[*:1]; X60 = O=C(C1(c2cccnc2)CCCC1)*; AEEA = NCCOCCOCC(=O)O; Aib = CC(C)(N)C(=O)O; βAla = NCCC(=O)O

By UniProt entry, the sequences of proteins in these tests, tags left out. Residues count along the entry.
UniProt P43220, 24-463: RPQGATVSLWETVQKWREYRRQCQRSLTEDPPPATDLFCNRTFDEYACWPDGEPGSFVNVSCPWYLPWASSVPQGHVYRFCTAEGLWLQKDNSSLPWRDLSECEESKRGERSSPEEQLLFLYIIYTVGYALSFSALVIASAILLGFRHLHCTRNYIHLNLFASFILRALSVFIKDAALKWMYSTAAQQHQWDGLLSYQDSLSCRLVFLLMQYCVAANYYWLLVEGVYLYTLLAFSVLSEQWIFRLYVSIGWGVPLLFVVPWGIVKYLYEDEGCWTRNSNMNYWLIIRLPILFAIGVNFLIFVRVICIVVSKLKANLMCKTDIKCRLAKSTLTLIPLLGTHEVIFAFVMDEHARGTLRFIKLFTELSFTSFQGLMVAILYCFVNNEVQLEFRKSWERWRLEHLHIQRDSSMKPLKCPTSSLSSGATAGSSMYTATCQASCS

Legend:
Assay type in all cases: cell-based
GLP-1 receptor [1] = biological target: T1, GLP-1 receptor (Homo sapiens, UniProt P43220); test: HitHunter cAMP assay, GLP-1 receptor; conditions: CHO cells stably expressing human GLP-1 receptor, cAMP accumulation, 30 min; read-out: EC50 GLP-1R
GLP-1 receptor [2] = biological target: T1, GLP-1 receptor; test: PathHunter β-arrestin assay, GLP-1 receptor; parameters: host or cells: PathHunter CHO-K1 GLP1R β-Arrestin Cell Line; conditions: β-arrestin-2 recruitment, PathHunter CHO-K1 GLP1R β-Arrestin Cell Line, 90 min at 37° C.; normalized to GLP-1; read-out: GLP-1R β Arrestin EC50
GIP receptor [3] = biological target: T2, GIP receptor (Homo sapiens, UniProt P48546); test: HitHunter cAMP assay, GIP receptor; conditions: CHO cells stably expressing GIP receptor, cAMP accumulation, 30 min; read-out: EC50 GIP-1R
T2 sequence (P48546 22-466): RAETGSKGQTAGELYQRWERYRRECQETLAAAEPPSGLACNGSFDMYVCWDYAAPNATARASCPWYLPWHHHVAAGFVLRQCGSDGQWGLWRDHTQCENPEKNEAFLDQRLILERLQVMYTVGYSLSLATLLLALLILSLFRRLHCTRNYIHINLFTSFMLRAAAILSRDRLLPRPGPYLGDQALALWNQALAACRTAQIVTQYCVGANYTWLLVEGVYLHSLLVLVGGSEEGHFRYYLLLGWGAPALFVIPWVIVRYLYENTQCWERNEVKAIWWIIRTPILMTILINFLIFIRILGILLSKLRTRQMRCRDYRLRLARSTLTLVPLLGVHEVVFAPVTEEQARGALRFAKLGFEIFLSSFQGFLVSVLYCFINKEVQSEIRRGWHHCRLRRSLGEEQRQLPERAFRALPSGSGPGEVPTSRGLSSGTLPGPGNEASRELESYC

GIP receptor [4] = biological target: T2, GIP receptor; test: PathHunter β-arrestin assay, GIP receptor; parameters: host or cells: PathHunter CHO-K1 GIPR β-Arrestin Cell Line; conditions: β-arrestin-2 recruitment, PathHunter CHO-K1 GIPR β-Arrestin Cell Line, 90 min at 37° C.; normalized to GIP

Row | SMILES | EC50 (GLP-1 receptor [1]) | EC50 (GLP-1 receptor [2]) | EC50 (GIP receptor [3]) | EC50 (GIP receptor [4])
1 | CC[C@H](C)[C@H](NC(=O)[C@H](CC(C)C)NC(=O)[C@H](Cc1c[nH]c2ccccc12)NC(=O)[C@H](CCC(N)=O)NC(=O)[C@@H](NC(=O)[C@H](Cc1ccccc1)NC(=O)[C@H](C)NC(=O)[C@H](CCCCNC(=O)COCCOCCNC(=O)COCCOCCNC(=O)CC[C@H](NC(=O)CCCCCCCCCCCCCCCCCCC(=O)O)C(=O)O)NC(=O)[C@H](CCC(N)=O)NC(=O)[C@H](C)NC(=O)[C@@H](NC(=O)[C@H](CCCCN)NC(=O)[C@H](CC(=O)O)NC(=O)[C@H](CC(C)C)NC(=O)C(C)(C)NC(=O)[C@@H](NC(=O)[C@H](CO)NC(=O)[C@H](Cc1ccc(O)cc1)NC(=O)[C@H](CC(=O)O)NC(=O)[C@H](CO)NC(=O)[C@@H](NC(=O)[C@](C)(Cc1ccccc1F)NC(=O)[C@@H](NC(=O)CNC(=O)[C@H](CCC(=O)O)NC(=O)CCNC(=O)C1(c2cccnc2)CCCC1)[C@@H](C)O)[C@@H](C)O)[C@@H](C)CC)[C@@H](C)CC)C(C)C)C(=O)N[C@@H](C)C(=O)NCC(N)=O [Compound 226] ({X60-βAla}-EGT[αMePhe(2-F)]TSDYSI[Aib]LDKIAQK([AEEA-AEEA-γGlu-C20 diacid])AFVQWLIAG-NH2; N-terminus and C-terminus assumed) | 0.1 to 1 nM | > 1000 nM | 0.1 to 1 nM | < 1000 nM
2 | CC[C@H](C)[C@H](NC(=O)[C@H](CC(C)C)NC(=O)[C@H](Cc1c[nH]c2ccccc12)NC(=O)[C@H](CCC(N)=O)NC(=O)[C@@H](NC(=O)[C@H](Cc1ccccc1)NC(=O)[C@H](C)NC(=O)[C@H](CCCCNC(=O)COCCOCCNC(=O)COCCOCCNC(=O)CC[C@H](NC(=O)CCCCCCCCCCCCCCCCCCC(=O)O)C(=O)O)NC(=O)[C@H](CCC(N)=O)NC(=O)[C@H](C)NC(=O)[C@@H](NC(=O)[C@H](CCCCN)NC(=O)[C@H](CC(=O)O)NC(=O)[C@H](CC(C)C)NC(=O)C(C)(C)NC(=O)[C@@H](NC(=O)[C@H](CO)NC(=O)[C@H](Cc1ccc(O)cc1)NC(=O)[C@H](CC(=O)O)NC(=O)[C@H](CO)NC(=O)[C@@H](NC(=O)[C@H](Cc1ccccc1)NC(=O)[C@@H](NC(=O)CNC(=O)[C@H](CCC(=O)O)NC(=O)CCNC(=O)C1(c2cccnc2)CCCC1)[C@@H](C)O)[C@@H](C)O)[C@@H](C)CC)[C@@H](C)CC)C(C)C)C(=O)N[C@@H](C)C(=O)NCC(N)=O [Compound 227] ({X60-βAla}-EGTFTSDYSI[Aib]LDKIAQK([AEEA-AEEA-γGlu-C20 diacid])AFVQWLIAG-NH2; N-terminus and C-terminus assumed) | 1 to 10 nM | > 1000 nM | 1 to 10 nM | > 1000 nM
3 | CC[C@H](C)[C@H](NC(=O)[C@H](CC(C)C)NC(=O)[C@H](Cc1c[nH]c2ccccc12)NC(=O)[C@H](CCC(N)=O)NC(=O)[C@@H](NC(=O)[C@H](Cc1ccccc1)NC(=O)[C@H](C)NC(=O)[C@H](CCCCNC(=O)COCCOCCNC(=O)COCCOCCNC(=O)CC[C@H](NC(=O)CCCCCCCCCCCCCCCCCCC(=O)O)C(=O)O)NC(=O)[C@H](CCC(N)=O)NC(=O)[C@H](C)NC(=O)[C@@H](NC(=O)[C@H](CCCCN)NC(=O)[C@H](CC(=O)O)NC(=O)[C@H](CC(C)C)NC(=O)C(C)(C)NC(=O)[C@@H](NC(=O)[C@H](CO)NC(=O)[C@H](Cc1ccc(O)cc1)NC(=O)[C@H](CC(=O)O)NC(=O)[C@H](CO)NC(=O)[C@@H](NC(=O)[C@](C)(Cc1ccccc1F)NC(=O)[C@@H](NC(=O)CNC(=O)[C@H](CCC(=O)O)NC(=O)CCNC(=O)C(C)(C)c1cc(F)cc(C#N)c1)[C@@H](C)O)[C@@H](C)O)[C@@H](C)CC)[C@@H](C)CC)C(C)C)C(=O)N[C@@H](C)C(=O)NCC(N)=O [Compound 228] ({Isobutyryl(2-(3-CN-5-F-Ph))-βAla}-EGT[αMePhe(2-F)]TSDYSI[Aib]LDKIAQK([AEEA-AEEA-γGlu-C20 diacid])AFVQWLIAG-NH2; N-terminus and C-terminus assumed) | 0.1 to 1 nM | > 1000 nM | 0.1 to 1 nM | < 1000 nM
4 | CC[C@H](C)[C@H](NC(=O)[C@H](CC(C)C)NC(=O)[C@H](Cc1c[nH]c2ccccc12)NC(=O)[C@H](CCC(N)=O)NC(=O)[C@@H](NC(=O)[C@H](Cc1ccccc1)NC(=O)[C@H](C)NC(=O)[C@H](CCCCNC(=O)COCCOCCNC(=O)COCCOCCNC(=O)CC[C@H](NC(=O)CCCCCCCCCCCCCCCCCCC(=O)O)C(=O)O)NC(=O)[C@H](CCC(N)=O)NC(=O)[C@H](C)NC(=O)[C@@H](NC(=O)[C@H](CCCCN)NC(=O)[C@H](CC(=O)O)NC(=O)[C@H](CC(C)C)NC(=O)C(C)(C)NC(=O)[C@@H](NC(=O)[C@H](CO)NC(=O)[C@H](Cc1ccc(O)cc1)NC(=O)[C@H](CC(=O)O)NC(=O)[C@H](CO)NC(=O)[C@@H](NC(=O)[C@H](Cc1ccccc1)NC(=O)[C@@H](NC(=O)CNC(=O)[C@H](CCC(=O)O)NC(=O)CCNC(=O)C(C)(C)c1cc(F)cc(C#N)c1)[C@@H](C)O)[C@@H](C)O)[C@@H](C)CC)[C@@H](C)CC)C(C)C)C(=O)N[C@@H](C)C(=O)NCC(N)=O [Compound 229] ({Isobutyryl(2-(3-CN-5-F-Ph))-βAla}-EGTFTSDYSI[Aib]LDKIAQK([AEEA-AEEA-γGlu-C20 diacid])AFVQWLIAG-NH2; N-terminus and C-terminus assumed) | 0.1 to 1 nM | > 1000 nM | 1 to 10 nM | < 1000 nM
